Assay results published in PubChem BioAssay AID493014 (National Center for Advancing Translational Sciences (NCATS), 2011).
About 170 (0.05%) of roughly 340,000 compounds were called active. Inconclusive results, whose numbers are uncertain, are shown with a selection of clear calls. The call rests on the fitted dose curve; in most records, active means well fitted inhibition curve with a large enough effect in the signal ratio, with a control signal flat (not every such curve was filed as active); inconclusive means small, poorly fitted or top-dose-only effect, or effect the other way, or a change in a side signal; inactive means flat fitted curve, though single readings scatter; the % refers to the signal ratio. A potency beside an inconclusive call is a rough fit, not a confirmed value.

Experiment: qHTS Assay to Find Inhibitors of Chronic Active B-Cell Receptor Signaling;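 on activity change, negative = inhibition: plate controls were basal doxycycline-induced cells for no effect and cells given 10 µM MG132 for full effect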
Settings: ABC-DLBCL IkBa-CBG/CBR reporter, luminescence ratio (green luciferase fused to IkBa over red control in TMD8 lymphoma cells), 4 h; activity change, negative = inhibition: at 46.1 µM (top of the series) unless noted
Outline: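 Compounds up to 46 uM were incubated four hours with TMD8 cells whose green CBG68 luciferase is fused to IkappaBalpha; red CBR luminescence normalised the signal, and concentration-effect curves were fitted to fusion, red and ratio data.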
Potency means the concentration at half of the fitted maximal effect.

| SMILES | activity change, negative = inhibition | Potency |
| --- | --- | --- |
| COC(=O)Nc1nnc(/C=C/c2ccccc2)s1 | inconclusive: 0.268% | – |
| O=C(O)CCC(=O)Nc1ccc(SSc2ccc(NC(=O)CCC(=O)O)cc2)cc1 | inactive: 0.254% | – |
| CC(Oc1ccccc1F)C(=O)NNC(=O)CCNC(=O)c1ccccc1Cl (centres undefined) | inactive: -9.12% | – |
| O=C(N/N=C/c1cccs1)c1[nH]ncc1Br | – | inconclusive: 25.1 µM [falling, partial curve] |
| O=C(CCc1ccccc1)OCC(=O)c1cccc([N+](=O)[O-])c1 | inactive: 6.12% | – |
| O=C(CN1C(=O)N/C(=C\c2ccccc2OCc2ccc(C(=O)O)cc2)C1=O)Nc1ccccc1F | inconclusive: 11.3% | – |
| C=CCn1c(NCc2cc(C)ccc2O)nc2ccccc21 | inconclusive: -10.7% | – |
| Clc1ccccc1CSC1=NCCN1 | – | inconclusive: 22.4 µM [falling, single point] |
| O=C(N/N=C/c1ccncc1)c1nn(Cc2ccccc2)c(=O)c2ccccc12 | inconclusive: -29.9% | – |
| O=C(CCCc1nc(-c2ccccc2)no1)NC1CCCCC1 | – | inconclusive: 3.55 µM [rising, full curve, poor fit] |
| Nc1nnnn1CC(=O)N/N=C/C=C/c1ccccc1 | inconclusive: -0.377% | – |
| COC(=O)c1cc(=O)n(CCc2ccccc2F)c(=Nc2ccc(F)c(Cl)c2)s1 | inconclusive: 2.81% | – |
| COc1cc2cnc(CCO[C@H]3CCCCO3)cc2cc1OC | inconclusive: -0.554% | – |
| O=C(NCc1cc(F)cc(C(F)(F)F)c1)C1CCC(=O)N(C2CCCC2)C1 (centres undefined) | inconclusive: -17.9% | – |
| COc1ccc2sc(N(CCCN(C)C)C(=O)c3ccc(S(=O)(=O)N4CCCC4)cc3)nc2c1 | inconclusive: -9.34% | – |
| CCSc1ccccc1C(=O)NCc1cccnc1 | inconclusive: -13.4% | – |
| CCN(CC(=O)Nc1ccc(N2CCOCC2)cc1)Cc1nc2ccccc2c(=O)[nH]1 | inactive: -0.207% | – |
| Cc1ccc(Nc2nc(C)cc(C)c2C(N)=O)cc1 | – | inconclusive: 2.31 µM [rising, partial curve] |
| CCN(CC)CCP(=O)(c1ccccc1)c1ccccc1 | inconclusive: -3.69% | – |
| N#C/C(=C\c1cccnc1)c1ccccn1 | inactive: -5.26% | – |
| O=C1NC(=S)N/C1=C/c1cccc2ccccc12 | inconclusive: -13.2% | – |
| CN1CCc2c(sc3c2C(=O)NC(c2ccc4c(c2)OCO4)N3)C1 (centres undefined) | inconclusive: -2.14% | – |
| CCOc1ccc(NC(=S)N2CCC(c3nc4ccccc4[nH]3)CC2)cc1 | – | inconclusive: 8.91 µM [rising, partial curve, poor fit] |
| Clc1ccc(-n2cccc2)cn1 | – | inconclusive: 35.5 µM [rising, partial curve, poor fit] |

3 entries out of the list, ordered by number of heavy atoms, rising.

| SMILES | activity change, negative = inhibition | Potency |
| --- | --- | --- |
| Clc1ccc(-n2cccc2)cn1 | – | inconclusive: 35.5 µM [rising, partial curve, poor fit] |
| CCSc1ccccc1C(=O)NCc1cccnc1 | inconclusive: -13.4% | – |
| CCN(CC(=O)Nc1ccc(N2CCOCC2)cc1)Cc1nc2ccccc2c(=O)[nH]1 | inactive: -0.207% | – |
